Laboratory results reported in PMC9089915.
Results are given in words; binding and its absence hold for the method and conditions named. For some of these results: Binding seen in cells or lysates may run through a third protein. Some entries that bind do so weakly or less than the wild type.

The chains behind the UniProt entries cited, without tags or fusion partners.
UniProt P63279: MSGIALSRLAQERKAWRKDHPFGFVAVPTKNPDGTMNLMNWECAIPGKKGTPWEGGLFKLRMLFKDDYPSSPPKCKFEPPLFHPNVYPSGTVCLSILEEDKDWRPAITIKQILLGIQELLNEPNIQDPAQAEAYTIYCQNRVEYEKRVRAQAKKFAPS
UniProt F5HDE4: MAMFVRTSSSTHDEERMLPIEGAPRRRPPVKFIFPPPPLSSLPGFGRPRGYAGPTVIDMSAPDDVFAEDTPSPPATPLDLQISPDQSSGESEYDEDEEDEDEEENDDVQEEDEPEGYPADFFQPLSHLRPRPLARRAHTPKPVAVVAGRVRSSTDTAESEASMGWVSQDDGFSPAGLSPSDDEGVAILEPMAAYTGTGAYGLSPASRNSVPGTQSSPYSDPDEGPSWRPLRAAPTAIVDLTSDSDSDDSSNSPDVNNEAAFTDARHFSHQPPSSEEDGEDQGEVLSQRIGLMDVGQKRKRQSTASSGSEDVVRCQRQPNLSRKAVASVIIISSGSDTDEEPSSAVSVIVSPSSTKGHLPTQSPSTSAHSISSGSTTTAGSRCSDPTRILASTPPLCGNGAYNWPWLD
UniProt P61956: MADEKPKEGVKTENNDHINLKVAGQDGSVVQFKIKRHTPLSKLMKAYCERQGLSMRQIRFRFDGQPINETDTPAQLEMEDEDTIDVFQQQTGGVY

What was measured:
[1] = molecular target: endogenous ubc9 (human (endogenous in HEK293T, iSLK-BAC16 and BCBL1)) (UniProt P63279); assay: co-IP; HEK293T transfected with Flag-tagged ORF45 or vector, 48 h; lysis in 50 mM Tris-HCl pH 7.4, 150 mM NaCl, 1% NP-40, 1 mM EDTA, 10% glycerol; IP and IB with indicated antibodies
[2] = molecular target: endogenous ubc9 (human (endogenous in HEK293T, iSLK-BAC16 and BCBL1)) (UniProt P63279); assay: co-IP; iSLK-BAC16 (doxycycline/sodium butyrate) and BCBL1 (TPA) cells, 72 h post-induction of lytic replication; IP with specific antibodies or control IgG and protein A/G agarose, overnight at 4 °C; IB
GST-SUMO1 (human) = GST-SUMO1 (human) (UniProt P63165); assay: pull-down; GST, GST-SUMO1 or GST-SUMO2 on Glutathione Sepharose 4B incubated with whole cell lysates of transfected HEK293T (20 mM Tris-HCl pH 7.5, 0.5% NP-40, 150 mM NaCl); 2 h at 4 °C by the methods, 30 min by the legends; IB; only the target purified
[3] = molecular target: KSHV ORF45 (full-length, GAL4 DNA-binding domain fusion, pAS2-1-ORF45) (KSHV) (UniProt F5HDE4); assay: two-hybrid; yeast co-transformed with bait plus prey; activation of the HIS3 and ADE2 reporters by growth on -4DO plates
[4] = molecular target: GST-SUMO1^G96A/G97A (human) (UniProt P63165); assay: pull-down; GST only, GST-SUMO1, GST-SUMO2 (or SUMO G/A mutants) on glutathione-Sepharose beads mixed with 0.5 μg purified His-tagged ORF45 in vitro for 30 min; Coomassie staining and IB with anti-ORF45; both purified
GST-SUMO2 (human) = GST-SUMO2 (human) (UniProt P61956); assay: pull-down; GST, GST-SUMO1 or GST-SUMO2 on Glutathione Sepharose 4B incubated with whole cell lysates of transfected HEK293T (20 mM Tris-HCl pH 7.5, 0.5% NP-40, 150 mM NaCl); 2 h at 4 °C by the methods, 30 min by the legends; IB; only the target purified

Which binding [1] does the source give for “Flag-tagged KSHV ORF45 (from UniProt F5HDE4 1-407)” here?
Its binding is “binds”.

For “KSHV ORF45 expressed from the viral genome during lytic replication (from UniProt F5HDE4 1-407)”, which binding [2] is on record?
Its binding is “binds”.

Which binding (GST-SUMO1 (human)) does the source give for “KSHV ORF45, wild type, expressed in HEK293T for the GST pull-down (from UniProt F5HDE4 1-407)” here?
Its binding is “binds”.

With “SUMO1 (yeast two-hybrid prey) (from UniProt P63165 1-101)” as the molecule, how does the binding [3] read?
Its binding is “binds”.

With “purified His-tagged KSHV ORF45 protein (from UniProt F5HDE4 1-407)” as the molecule, how does the binding [4] read?
The binding was “binds”.

B1: ORF45 homologue of Epstein-Barr virus (protein, UniProt P30117 1-217)
chain: MAMFLKSRGVRSCRDRRLLSDEEEETSQSSSYTLGSQASQSIQEEDVSDTDESDYSDEDEEIDLEEEYPSDEDPSEGSDSDPSWHPSDSDESDYSESDEDEATPGSQASRSSRVSPSTQQSSGLTPTPSFSRPRTRAPPRPPAPAPVRGRASAPPRPPAPVQQSTKDKGPHRPTRPVLRGPAPRRPPPPSSPNTYNKHMMETTPPIKGNNNYNWPWL
How did the binding (GST-SUMO2 (human)) turn out when B1 was run?
The binding was “no binding”.

And the binding (GST-SUMO1 (human))?
The binding was “no binding”.
